PubChem BioAssay AID1224826 – NIAID | 2016

- Aim: 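Knock-downs that raise or lower Tnf reporter signal after endotoxin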 (primary screen)
- Cell system: RAW264.7 G9 macrophages from mouse bearing reporters for p65 (GFP) and the Tnf promoter (mCherry)
- Knock-down reagent: siRNA pool against mouse genes, 100 nM
- Time to read-out: 16 h of LPS stimulation, after 2 days of siRNA transfection
- Conditions: bacterial lipopolysaccharide (Salmonella minnesota R595), 10 ng/ml
- Read-out: 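Imaged Tnf reporter mCherry in nuclei, minus background, normalised per plate to the median and expressed as robust z-scores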
- Direction: Tnf reporter robust z-score: higher = stronger Tnf promoter reporter signal after LPS; Tnf reporter intensity: higher = stronger Tnf promoter reporter signal
- Hit rule: 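a well counts as active at a score of -1.3 or below (Tlr4 knock-down control median) or above 3 (raised signal); controls and wells holding fewer than 50 cells are excluded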
- Calls: active = Tnf reporter clearly lowered or raised; inactive = no clear change in Tnf reporter
The deposit covers about 17,000 reagents; shown is an unselected part. About 1,110 of all reagents (6.6%) were called active. 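Active means lowered or raised reporter signal; replicate intensities are raw and not normalised per plate.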

no.	gene	Tnf reporter robust z-score	fewer than 50 cells in well	Tnf reporter intensity, replicate 1	Tnf reporter intensity, replicate 2	outcome
1	Spag9 (GeneID 70834)	-0.02	enough cells in well	317	180	inactive
2	Chmp7 (GeneID 105513)	-0.4	enough cells in well	162	119	inactive
3	Il1rap (GeneID 16180)	-0.06	enough cells in well	264	126	inactive
4	Rapgef1 (GeneID 107746)	-0.68	enough cells in well	318	105	inactive
5	Nherf2 (GeneID 65962)		fewer than 50 cells per well; well left out of calls	76.7	857	inactive
6	Slmap (GeneID 83997)		fewer than 50 cells per well; well left out of calls	104	66.8	inactive
7	Hdac8 (GeneID 70315)	-0.92	enough cells in well	168	126	inactive
8	Sftpc (GeneID 20389)	-0.12	enough cells in well	242	229	inactive
9	Atp2a1 (GeneID 11937)		fewer than 50 cells per well; well left out of calls	77.1	112	inactive
10	Brcc3dc (GeneID 368203)	1.11	enough cells in well	139	247	inactive
11	Bst2 (GeneID 69550)	-0.6	enough cells in well	141	41.7	inactive
12	Vezt (GeneID 215008)	0.08	enough cells in well	253	152	inactive
13	Rbm7 (GeneID 67010)	-0.07	enough cells in well	115	136	inactive
14	Rac2 (GeneID 19354)	0.14	enough cells in well	273	249	inactive
15	Gnas (GeneID 14683)	-1.35	enough cells in well	71.3	241	active
16	Glrx2 (GeneID 69367)	-0.5	enough cells in well	206	150	inactive
17	Rhbdl1 (GeneID 214951)	-1.48	enough cells in well	65.5	62.9	active
18	Ttc16 (GeneID 338348)	-0.32	enough cells in well	132	74.5	inactive
19	Acin1 (GeneID 56215)	-1.17	enough cells in well	104	100	inactive
20	Ddx1 (GeneID 104721)	0.89	enough cells in well	298	166	inactive
21	Tlr11 (GeneID 239081)	2.51	enough cells in well	214	174	inactive
22	Olr1 (GeneID 108078)	-0.25	enough cells in well	244	149	inactive
23	Mael (GeneID 98558)	-1.1	enough cells in well	133	40.7	inactive
24	Nlrp4c (GeneID 83564)	0.56	enough cells in well	141	163	inactive

2 entries from above, reformatted.
gene,Tnf reporter robust z-score,fewer than 50 cells in well,"Tnf reporter intensity, replicate 1","Tnf reporter intensity, replicate 2",outcome
Slmap (GeneID 83997),,fewer than 50 cells per well; well left out of calls,104,66.8,inactive
Hdac8 (GeneID 70315),-0.92,enough cells in well,168,126,inactive
